Counter-ions that a name gives are not always drawn. ± gives the uncertainty stated by the source. The list shows a part of the results. Baselines shift from plate to plate; read single values as rough.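 Larvae carried a heat-shock-induced fluorescent stripe in rod outer segments, set at 6 dpf; the shedding distance runs from this stripe to the outer segment tip, measured in confocal stacks, about three fish per compound. The controls got 0.2% DMSO vehicle, and the paper flagged compounds with at least a 20% change against the same-week control and p < 0.001 (Dunnett test on mixed-effects models).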
Legend:
[1] = test system: Danio rerio larva rod photoreceptor outer segment; assay: rod outer segment growth distance Dg, difference from same-week DMSO control mean; higher = more outer segment growth; conditions: 20 µM; treatment time: 4 days (6-10 dpf)
[2] = test system: Danio rerio larva rod photoreceptor outer segment; assay: rod outer segment shedding distance Ds, difference from same-week DMSO control mean; higher = less outer segment shedding; conditions: 20 µM; treatment time: 4 days (6-10 dpf)

Row | SMILES | rod outer segment growth distance Dg [1] [um] | rod outer segment shedding distance Ds [2] [um]
1 | CCc1cccc2c3c([nH]c12)C(CC)(CC(=O)O)OCC3 (stereo not drawn) [Etodolac] | 1.48 ± 0.17 | -0.13 ± 0.18
2 | O=C1[C@H](CC[C@H](O)c2ccc(F)cc2)[C@@H](c2ccc(O)cc2)N1c1ccc(F)cc1 [Ezetimibe] | -0.8 ± 0.18 | 0.42 ± 0.18
3 | Cc1cn(-c2cc(NC(=O)c3ccc(C)c(Nc4nccc(-c5cccnc5)n4)c3)cc(C(F)(F)F)c2)cn1 [Nilotinib (AMN-107)] | -0.96 ± 0.18 | -1.01 ± 0.23
4 | CCN1CCC[C@H]1CNC(=O)c1cc(S(N)(=O)=O)ccc1OC [Levosulpiride] | 0.51 ± 0.27 | -0.42 ± 0.26
5 | Cn1cnc2c(F)c(Nc3ccc(Br)cc3Cl)c(C(=O)NOCCO)cc21 [Selumetinib (AZD6244)] | -0.2 ± 0.26 | -0.51 ± 0.28
6 | Cc1ccccc1N1C(=O)c2cc(S(N)(=O)=O)c(Cl)cc2NC1C (stereo not drawn) [Metolazone] | 0.11 ± 0.2 | -0.14 ± 0.14
7 | CC(=O)NC[C@H]1CN(c2ccc(N3CCOCC3)c(F)c2)C(=O)O1 [Linezolid] | 0.08 ± 0.19 | 0.2 ± 0.21
8 | CCc1cc2c(cc1N1CCC(N3CCOCC3)CC1)C(C)(C)c1[nH]c3cc(C#N)ccc3c1C2=O | -0.63 ± 0.14 | -0.25 ± 0.14
9 | C[C@@H](c1ncncc1F)[C@](O)(Cn1cncn1)c1ccc(F)cc1F [Voriconazole] | -0.36 ± 0.16 | -0.14 ± 0.18
10 | COc1cc(Nc2ncc3c(n2)-c2ccc(Cl)cc2C(c2c(F)cccc2OC)=NC3)ccc1C(=O)O [Alisertib (MLN8237)] | 0.14 ± 0.19 | -1.22 ± 0.2
11 | CNS(=O)(=O)Cc1ccc2[nH]cc(CCN(C)C)c2c1 [Sumatriptan Succinate] | 0.55 ± 0.17 | -0.04 ± 0.21
12 | O=C(NCCO[N+](=O)[O-])c1cccnc1 [Nicorandil] | 1.19 ± 0.29 | -0.54 ± 0.23
13 | CN[C@@H]1[C@H](O)[C@H](NC)[C@H]2O[C@@]3(O)C(=O)C[C@@H](C)O[C@H]3O[C@@H]2[C@H]1O [Spectinomycin HCl] | -0.07 ± 0.22 | -0.03 ± 0.33
14 | Nc1nc2c(ncn2COC(CO)CO)c(=O)[nH]1 [Ganciclovir] | 0.67 ± 0.17 | 1.03 ± 0.25
15 | Cc1ccc(S(=O)(=O)OCC(=O)Nc2ccc(C(=O)O)c(O)c2)cc1 | 0.03 ± 0.29 | -0.26 ± 0.2
16 | Cc1cc(Nc2cc(N3CCN(C)CC3)nc(Sc3ccc(NC(=O)C4CC4)cc3)n2)n[nH]1 [VX-680 (Tozasertib, MK-0457)] | -0.42 ± 0.086 | -0.98 ± 0.2
17 | Cc1ccc(Sc2cncc3sc(C(N)=O)cc23)cc1 | -1.09 ± 0.34 | 0.26 ± 0.17

Row | SMILES | rod outer segment growth distance Dg [1] [um] | rod outer segment shedding distance Ds [2] [um]
18 | CCOC(=O)[C@H](CCc1ccccc1)N[C@H]1CCCN2CCC[C@@H](C(=O)O)N2C1=O [Cilazapril Monohydrate] | -0.44 ± 0.22 | -0.08 ± 0.26
19 | C#Cc1cccc(Nc2ncnc3cc4c(cc23)OCCOCCOCCO4)c1 [Icotinib] | -0.03 ± 0.28 | -0.26 ± 0.22
20 | COc1cc2c(cc1OC)CC(=O)N(CCCN(C)C[C@H]1Cc3cc(OC)c(OC)cc31)CC2 [Ivabradine HCl] | -0.21 ± 0.58 | -1.16 ± 0.57
21 | Nc1ccc(S(=O)(=O)Nc2ncccn2)cc1 [Sulfadiazine] | 1.11 ± 0.25 | -0.4 ± 0.14
22 | COc1cc(OC)c(C(=O)CCCN2CCCC2)c(OC)c1 [Buflomedil HCl] | -0.33 ± 0.22 | -0.31 ± 0.14
23 | Nc1ccn([C@H]2CC[C@@H](CO)O2)c(=O)n1 [Zalcitabine] | 0.78 ± 0.26 | -0.01 ± 0.15
24 | CC(C)=CCC[C@](C)(O[C@@H]1O[C@H](CO[C@@H]2OC[C@@H](O)[C@H](O)[C@H]2O)[C@@H](O)[C@H](O)[C@H]1O)[C@H]1CC[C@]2(C)[C@@H]1[C@H](O)C[C@@H]1[C@@]3(C)CC[C@H](O[C@@H]4O[C@H](CO)[C@@H](O)[C@H](O)[C@H]4O)C(C)(C)[C@@H]3CC[C@]12C [Gynostemma Extract] | 0.52 ± 0.29 | -0.51 ± 0.36
25 | COc1cc(C2Oc3cc([C@H]4Oc5cc(O)cc(O)c5C(=O)[C@@H]4O)ccc3OC2CO)ccc1O (stereo partly drawn) [Silymarin] | -0.45 ± 0.22 | 0.54 ± 0.24
26 | O=C(Nc1ccccc1)c1cc([N+](=O)[O-])ccc1Cl | -0.95 ± 0.15 | 0.14 ± 0.13
27 | CCC[C@@H]1C[C@@H](C(=O)N[C@@H]([C@H]2O[C@H](SC)[C@H](O)[C@@H](O)[C@H]2O)[C@H](C)Cl)N(C)C1 [Clindamycin] | 0.88 ± 0.15 | -0.35 ± 0.12
28 | COc1cccc(-c2cc(=O)c3ccccc3o2)c1N | -0.61 ± 0.2 | -0.24 ± 0.18
29 | C[C@]12CC[C@@H]3c4ccc(O)cc4C[C@@H](CCCCCCCCC[S+]([O-])CCCC(F)(F)C(F)(F)F)[C@H]3[C@@H]1CC[C@@H]2O (stereo partly drawn) [Fulvestrant] | -0.14 ± 0.16 | -1.23 ± 0.21
30 | CNC(=O)CN(CCN(CCN(CC(=O)[O-])CC(=O)NC)CC(=O)[O-])CC(=O)[O-].[Gd+3] [Gadodiamide] | -0.94 ± 0.24 | -0.22 ± 0.21
31 | Nc1nc(Cl)nc2c1ncn2[C@@H]1O[C@H](CO)[C@@H](O)[C@@H]1F [Clofarabine] | 0.64 ± 0.18 | -0.56 ± 0.18
32 | C[C@H]1COc2c(N3CCN(C)CC3)c(F)cc3c(=O)c(C(=O)O)cn1c23 [Levofloxacin] | -0.49 ± 0.19 | -1.32 ± 0.29
33 | COc1cc(C(C)=O)ccc1O [Apocynin] | -0.03 ± 0.29 | -0.26 ± 0.32
34 | C[C@@H](Oc1cc(-n2cnc3ccc(CN4CCN(C)CC4)cc32)sc1C(N)=O)c1ccccc1C(F)(F)F | -1.26 ± 0.34 | -2.19 ± 0.33

Given with tabs: 8 of the compounds above
Row	SMILES	rod outer segment growth distance Dg [1] [um]	rod outer segment shedding distance Ds [2] [um]
24	CC(C)=CCC[C@](C)(O[C@@H]1O[C@H](CO[C@@H]2OC[C@@H](O)[C@H](O)[C@H]2O)[C@@H](O)[C@H](O)[C@H]1O)[C@H]1CC[C@]2(C)[C@@H]1[C@H](O)C[C@@H]1[C@@]3(C)CC[C@H](O[C@@H]4O[C@H](CO)[C@@H](O)[C@H](O)[C@H]4O)C(C)(C)[C@@H]3CC[C@]12C [Gynostemma Extract]	0.52 ± 0.29	-0.51 ± 0.36
25	COc1cc(C2Oc3cc([C@H]4Oc5cc(O)cc(O)c5C(=O)[C@@H]4O)ccc3OC2CO)ccc1O (stereo partly drawn) [Silymarin]	-0.45 ± 0.22	0.54 ± 0.24
26	O=C(Nc1ccccc1)c1cc([N+](=O)[O-])ccc1Cl	-0.95 ± 0.15	0.14 ± 0.13
27	CCC[C@@H]1C[C@@H](C(=O)N[C@@H]([C@H]2O[C@H](SC)[C@H](O)[C@@H](O)[C@H]2O)[C@H](C)Cl)N(C)C1 [Clindamycin]	0.88 ± 0.15	-0.35 ± 0.12
28	COc1cccc(-c2cc(=O)c3ccccc3o2)c1N	-0.61 ± 0.2	-0.24 ± 0.18
29	C[C@]12CC[C@@H]3c4ccc(O)cc4C[C@@H](CCCCCCCCC[S+]([O-])CCCC(F)(F)C(F)(F)F)[C@H]3[C@@H]1CC[C@@H]2O (stereo partly drawn) [Fulvestrant]	-0.14 ± 0.16	-1.23 ± 0.21
30	CNC(=O)CN(CCN(CCN(CC(=O)[O-])CC(=O)NC)CC(=O)[O-])CC(=O)[O-].[Gd+3] [Gadodiamide]	-0.94 ± 0.24	-0.22 ± 0.21
31	Nc1nc(Cl)nc2c1ncn2[C@@H]1O[C@H](CO)[C@@H](O)[C@@H]1F [Clofarabine]	0.64 ± 0.18	-0.56 ± 0.18

Reference: the supplement of paper PMC6143611
